Reference: the supplement of paper PMC12823440, “Inhibitors supercharge kinase turnover through native proteolytic circuits” (Nature, 2025)
Counter-ions that a name gives are not always drawn. This is one part of the list. The calls rarely recur for the same compound in another form.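 In K562 cells expressing nanoluciferase-fused kinases, luminescence was recorded at 4 h intervals between 2 and 18 h, normalized as percent of control with DMSO at 100% and a positive control at 0%. A significant (2 sigma) signal drop marks a time point as decreased. The authors' rule for a hit is not shown and takes in more than the number of time points.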

Sequences of proteins named here, by UniProt entry; tags and fusion partners are left off. A change or cut given only in a name is not applied to a line headed by its entry.
UniProt P53667: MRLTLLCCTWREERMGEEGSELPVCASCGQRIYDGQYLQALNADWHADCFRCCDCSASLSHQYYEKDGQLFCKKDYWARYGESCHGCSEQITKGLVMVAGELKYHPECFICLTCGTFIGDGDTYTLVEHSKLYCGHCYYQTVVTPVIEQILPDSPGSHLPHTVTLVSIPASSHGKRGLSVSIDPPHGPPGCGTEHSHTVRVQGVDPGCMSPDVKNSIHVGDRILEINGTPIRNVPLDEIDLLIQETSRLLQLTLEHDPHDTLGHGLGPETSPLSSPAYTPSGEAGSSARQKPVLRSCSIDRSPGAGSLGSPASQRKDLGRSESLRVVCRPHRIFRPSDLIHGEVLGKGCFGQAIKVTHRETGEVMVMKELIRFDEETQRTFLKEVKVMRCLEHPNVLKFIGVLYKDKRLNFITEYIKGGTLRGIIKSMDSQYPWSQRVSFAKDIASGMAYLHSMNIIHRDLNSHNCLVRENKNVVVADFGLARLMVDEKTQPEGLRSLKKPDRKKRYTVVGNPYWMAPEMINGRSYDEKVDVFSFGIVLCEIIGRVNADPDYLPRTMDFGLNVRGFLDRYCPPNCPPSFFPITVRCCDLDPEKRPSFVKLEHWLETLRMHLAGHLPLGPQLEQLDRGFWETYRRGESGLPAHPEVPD

biological target: LIMK1 (UniProt P53667); assay: kinase-Nluc reporter destabilization hit call (1 = scored as downregulated) (binary); higher = compound decreases kinase abundance; conditions: K562; 2-18 h

kinase-Nluc reporter destabilization hit call, inactive:
Cn1cc(Nc2nccc(N3C[C@H]4CC[C@@H](C3)N4C(=O)[C@@H]3CC3(F)F)n2)cn1 (10 µM) 0
CC(C)=CC(=O)CCC(=O)N1CCN(Cc2cc3nc(-c4cccc5[nH]ncc45)nc(N4CCOCC4)c3s2)CC1 (10 µM) 0
CN(C)CCN(Cc1ccc(Cl)cc1)c1ccccn1 [Chloropyramine hydrochloride] (10 µM) 0
COc1cc([N+](=O)[O-])ccc1S(=O)(=O)N1C[C@@H](CN2CCN(c3ccccn3)CC2)[C@H](c2cccc(F)c2)C1 (relative stereo) (10 µM) 0
Cc1noc(C)c1-c1ccc(-c2cc(C(N)=O)c(NC(N)=O)s2)c(O[C@H]2CCNC2)c1 (10 µM) 0
CC(C)(C)NC(=O)c1cncn1C1CCN(c2ccc(-c3nnc(C(F)(F)F)o3)cn2)CC1 (10 µM) 0
COc1cccc(-n2c(=O)[nH]c3cc(Cl)n(-c4ccc(-c5cccc(OC)c5O)cc4)c3c2=O)c1 (2.5 µM) 0
O=C(Nc1cccnc1)c1cc(C(=O)c2c(F)cccc2Br)c[nH]1 (10 µM) 0
O=C(Nc1cc(Oc2cc(F)c(NC(=O)C3(C(=O)Nc4ccc(F)cc4)CC3)cc2F)ccn1)C1CC1 [Altiratinib] (10 µM) 0
O=C1NC(=O)C(=Cc2ccc(-c3ccc(F)cc3)o2)S1 (stereo in doubt) (10 µM) 0
O=C(NC(NC(=S)Nc1ccc(F)c([N+](=O)[O-])c1)C(Cl)(Cl)Cl)C(c1ccccc1)c1ccccc1 (stereo not drawn) (10 µM) 0
Nc1ncnc2c1ncn2[C@@H]1O[C@H](CO)C[C@H]1O [Cordycepin] (10 µM) 0
CC(C)(NS(=O)(=O)c1ccc2c(Cl)cnc(N=C(N)N)c2c1)C(=O)O (10 µM) 0
COc1cc2ncnc(Nc3cccc(Cl)c3)c2cc1OC (10 µM) 0
CCOc1ccc(C(=O)Nc2ncc([N+](=O)[O-])s2)cc1 (10 µM) 0
CC(C)CN[C@H]1CS(=O)(=O)C[C@@H]1S(=O)(=O)c1ccc(Cl)cc1 (10 µM) 0
CCn1c(=O)c(-c2ccc(-c3cncs3)cc2Cl)cc2cnc(Nc3ccc(N4CCN(C)CC4)cc3)nc21 (2.5 µM) 0
C[C@]1(O)CCC[C@@H]1n1c(=O)c(C(F)F)cc2cnc(NC3CCN(S(C)(=O)=O)CC3)nc21 (10 µM) 0
COc1c(NC(=O)C(=O)c2ccc(OCCN3CCOCC3)c3ccccc23)cc(C(C)(C)C)cc1NS(C)(=O)=O (2.5 µM) 0
COc1cc(S(C)(=O)=O)ccc1Nc1nc2ccc(-c3ccc(NC(=O)[C@H](C)c4ccc(F)cc4)cc3)cn2n1 [Empesertib] (10 µM) 0
Nc1cc(Nc2ccc(S(N)(=O)=O)cc2)ncn1 (10 µM) 0
O=C(O)c1cc(O)ccc1O [2,5-Dihydroxybenzoic acid] (10 µM) 0
OCCNC1CCCc2c1[nH]c1ccc(-c3ccccc3)cc21 (stereo not drawn) (2.5 µM) 0
CC(C)CC1(O)CCN(C(=O)c2ccc(NS(=O)(=O)c3cccc4nccnc34)cc2)CC1 (10 µM) 0
CNC(=O)c1ccc(-c2cnc3cnc(C(=O)N(C)c4ccc(Cl)cc4)cn23)cc1 (2.5 µM) 0
Cc1cc(Nc2cc(Cl)nc(Oc3ccc([N+](=O)[O-])cc3)n2)n[nH]1 [Autophinib] (2.5 µM) 0
CN1CCN(c2ccc(Nc3ncc4nc(Nc5ccccc5)n([C@@H]5CCN(S(=O)(=O)C6CC6)C5)c4n3)cc2)CC1 (2.5 µM) 0
Cc1c(CN2CCN(S(C)(=O)=O)CC2)sc2c(N3CCOCC3)nc(-c3cnc(N)nc3)nc12 (2.5 µM) 0
O=C(NCCCNc1nc(Nc2cccc(NC(=O)N3CCCC3)c2)ncc1I)c1cccs1 (2.5 µM) 0
O=C(/C=C/c1ccc(O[C@@H]2O[C@H](CO)[C@@H](O)[C@H](O)[C@H]2O[C@@H]2OC[C@](O)(CO)[C@H]2O)cc1)c1ccc(O)cc1O [Isoliquiritin apioside] (10 µM) 0
O=C1NC(=O)/C(=C/c2ccc3c(c2)OC(F)(F)O3)S1 (10 µM) 0
COc1ccc([C@@H]2CC(=O)c3c(O)cc(O)cc3O2)cc1O [Hesperetin] (10 µM) 0
N#Cc1c(-c2ccccc2)cc(-c2cc(Br)ccc2O)[nH]c1=O (10 µM) 0
Cc1c(CN2CCN(C(=O)[C@H](C)O)CC2)sc2c(N3CCOCC3)nc(-c3cnc(N)nc3)nc12 [Apitolisib] (10 µM) 0
NC1(Cc2ccc(Cl)cc2)CCN(c2ncnc3[nH]ccc23)CC1 (10 µM) 0
O=C(/C=C/c1ccc(O)c(O)c1)c1ccc(O[C@@H]2O[C@H](CO)[C@@H](O)[C@H](O)[C@H]2O)c(O)c1O [Marein] (10 µM) 0
CN(CC(=O)N(Cc1ccc(C2CCCCC2)cc1)c1ccc(C(=O)O)cc1)S(=O)(=O)c1c(F)c(F)c(F)c(F)c1F (2.5 µM) 0
CC(C)NC(=O)N1CC[C@H](NC2=Nc3cc(F)ccc3N(CC(F)F)c3ccc(Cl)cc32)C1 (10 µM) 0

Already shown: seven of the compounds above.
kinase-Nluc reporter destabilization hit call, inactive:
O=C(Nc1cccnc1)c1cc(C(=O)c2c(F)cccc2Br)c[nH]1 (10 µM) 0
O=C(Nc1cc(Oc2cc(F)c(NC(=O)C3(C(=O)Nc4ccc(F)cc4)CC3)cc2F)ccn1)C1CC1 [Altiratinib] (10 µM) 0
O=C1NC(=O)C(=Cc2ccc(-c3ccc(F)cc3)o2)S1 (stereo in doubt) (10 µM) 0
O=C(NC(NC(=S)Nc1ccc(F)c([N+](=O)[O-])c1)C(Cl)(Cl)Cl)C(c1ccccc1)c1ccccc1 (stereo not drawn) (10 µM) 0
Nc1ncnc2c1ncn2[C@@H]1O[C@H](CO)C[C@H]1O [Cordycepin] (10 µM) 0
CC(C)(NS(=O)(=O)c1ccc2c(Cl)cnc(N=C(N)N)c2c1)C(=O)O (10 µM) 0
COc1cc2ncnc(Nc3cccc(Cl)c3)c2cc1OC (10 µM) 0
